From PMC13557503
These are yes or no findings as the source states them, for the method shown. Binding can be weak; no strength is given.

By UniProt entry, the sequences of proteins in these tests, tags left out. Where a name states a change or a piece, a line headed by the entry shows the natural chain unless it says otherwise.
UniProt F7VVC1: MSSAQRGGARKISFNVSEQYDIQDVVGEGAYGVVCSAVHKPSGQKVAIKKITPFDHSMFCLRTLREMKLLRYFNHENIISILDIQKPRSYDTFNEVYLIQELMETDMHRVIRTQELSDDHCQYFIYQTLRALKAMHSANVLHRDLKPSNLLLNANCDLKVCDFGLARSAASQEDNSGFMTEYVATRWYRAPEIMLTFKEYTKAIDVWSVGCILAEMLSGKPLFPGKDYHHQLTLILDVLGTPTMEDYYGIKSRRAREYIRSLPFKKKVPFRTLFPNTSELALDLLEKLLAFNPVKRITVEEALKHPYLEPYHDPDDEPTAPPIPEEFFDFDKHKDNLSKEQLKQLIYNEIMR

Target: BD-MAK2 (S. macrospora) (UniProt F7VVC1)
Test: two-hybrid; Matchmaker Gold; Gal4 BD baits (pGBKT7) in Y2HGold mated with Gal4 AD preys (pGADT7) in Y187; drop dilutions on SD-Leu-Trp-His-Ade, 30 °C, 5 days

- binding: binds
Substance: AD-SmDOC1 (from UniProt F7W7B4)
